The target in the data set is T1, SprT-BR-L99S (UniProt Q9H040).
T1 sequence (looked up): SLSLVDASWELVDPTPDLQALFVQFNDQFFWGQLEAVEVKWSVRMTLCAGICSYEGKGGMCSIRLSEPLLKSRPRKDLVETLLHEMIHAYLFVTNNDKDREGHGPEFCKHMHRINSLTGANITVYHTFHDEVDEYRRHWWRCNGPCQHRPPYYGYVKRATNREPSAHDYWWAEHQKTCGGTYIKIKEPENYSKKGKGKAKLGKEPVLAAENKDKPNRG
Description: NMR 1H,15N-HSQC. The settings on record: 200 uM DNA + 500 uM Ub1, additional effect of Ub1 virtually absent; NMR: 20 mM HEPES/KOH pH 7.2, 150 mM KCl, 10% D2O, 308 K; 100 uM protein, 2x dsDNA, 5x Ub1; recombinant protein; residues 28-245.

The exact form of at least one protein or probe is not confirmed. At least one verdict was read from the data and is not stated in words by the source. Protein sequences can lack the tags named with them.

Regarding “CCTTGCTAGGACATC (double strand) [15-bp dsDNA (NMR)]”, the binding result is “binds”.

The record behind these values is article PMC12279946.
